No constants are given. Whether binding was seen depends on the method and setting. Some entries that bind do so weakly or less than the wild type.
Assays:
Test in all cases: flow cytometry on cells; only the binder purified
[1] = target: integrin α5β1 on A375Ppuro cells (human (endogenous in A375Ppuro)) (UniProt P08648)
[2] = target: integrin αvβ3 on A375Ppuro cells (human (endogenous in A375Ppuro)) (UniProt P06756)
[3] = target: integrin αvβ5 on A375Ppuro cells (human (endogenous in A375Ppuro)) (UniProt P06756)
[4] = target: integrin αvβ6 on A375Pβ6 cells (human (endogenous in A375Pβ6) | not stated) (UniProt P06756)
[5] = target: integrin αvβ8 on A375Ppuro cells (human (endogenous in A375Ppuro)) (UniProt P06756)

The chains behind the UniProt entries cited, without tags or fusion partners. Where a name states a change or a piece, a line headed by the entry shows the natural chain unless it says otherwise.
UniProt P08648: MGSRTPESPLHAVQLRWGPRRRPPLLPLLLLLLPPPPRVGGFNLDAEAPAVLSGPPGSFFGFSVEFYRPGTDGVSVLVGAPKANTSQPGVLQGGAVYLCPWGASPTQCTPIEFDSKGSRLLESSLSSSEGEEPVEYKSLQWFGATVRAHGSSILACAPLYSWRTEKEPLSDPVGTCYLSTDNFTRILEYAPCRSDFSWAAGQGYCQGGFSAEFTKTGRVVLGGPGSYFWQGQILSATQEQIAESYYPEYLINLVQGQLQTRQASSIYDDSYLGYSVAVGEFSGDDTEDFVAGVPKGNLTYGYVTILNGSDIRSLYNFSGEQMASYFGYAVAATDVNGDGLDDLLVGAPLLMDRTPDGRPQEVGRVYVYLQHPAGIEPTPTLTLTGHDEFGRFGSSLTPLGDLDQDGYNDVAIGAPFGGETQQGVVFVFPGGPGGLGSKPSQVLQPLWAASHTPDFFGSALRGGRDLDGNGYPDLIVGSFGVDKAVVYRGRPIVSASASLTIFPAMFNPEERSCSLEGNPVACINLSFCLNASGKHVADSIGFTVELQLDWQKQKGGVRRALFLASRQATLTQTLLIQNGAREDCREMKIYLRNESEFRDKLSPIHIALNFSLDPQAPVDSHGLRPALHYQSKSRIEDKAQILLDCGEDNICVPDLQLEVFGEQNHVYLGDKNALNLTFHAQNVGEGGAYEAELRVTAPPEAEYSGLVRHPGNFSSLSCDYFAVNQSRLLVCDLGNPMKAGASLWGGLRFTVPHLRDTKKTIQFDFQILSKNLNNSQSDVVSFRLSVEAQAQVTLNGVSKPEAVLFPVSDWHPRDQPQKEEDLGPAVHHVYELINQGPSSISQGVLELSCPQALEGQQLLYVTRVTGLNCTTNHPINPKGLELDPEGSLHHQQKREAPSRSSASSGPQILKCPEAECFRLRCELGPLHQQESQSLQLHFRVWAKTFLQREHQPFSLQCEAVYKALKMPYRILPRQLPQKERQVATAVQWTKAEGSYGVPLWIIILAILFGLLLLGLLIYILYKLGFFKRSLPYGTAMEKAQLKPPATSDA
UniProt P06756: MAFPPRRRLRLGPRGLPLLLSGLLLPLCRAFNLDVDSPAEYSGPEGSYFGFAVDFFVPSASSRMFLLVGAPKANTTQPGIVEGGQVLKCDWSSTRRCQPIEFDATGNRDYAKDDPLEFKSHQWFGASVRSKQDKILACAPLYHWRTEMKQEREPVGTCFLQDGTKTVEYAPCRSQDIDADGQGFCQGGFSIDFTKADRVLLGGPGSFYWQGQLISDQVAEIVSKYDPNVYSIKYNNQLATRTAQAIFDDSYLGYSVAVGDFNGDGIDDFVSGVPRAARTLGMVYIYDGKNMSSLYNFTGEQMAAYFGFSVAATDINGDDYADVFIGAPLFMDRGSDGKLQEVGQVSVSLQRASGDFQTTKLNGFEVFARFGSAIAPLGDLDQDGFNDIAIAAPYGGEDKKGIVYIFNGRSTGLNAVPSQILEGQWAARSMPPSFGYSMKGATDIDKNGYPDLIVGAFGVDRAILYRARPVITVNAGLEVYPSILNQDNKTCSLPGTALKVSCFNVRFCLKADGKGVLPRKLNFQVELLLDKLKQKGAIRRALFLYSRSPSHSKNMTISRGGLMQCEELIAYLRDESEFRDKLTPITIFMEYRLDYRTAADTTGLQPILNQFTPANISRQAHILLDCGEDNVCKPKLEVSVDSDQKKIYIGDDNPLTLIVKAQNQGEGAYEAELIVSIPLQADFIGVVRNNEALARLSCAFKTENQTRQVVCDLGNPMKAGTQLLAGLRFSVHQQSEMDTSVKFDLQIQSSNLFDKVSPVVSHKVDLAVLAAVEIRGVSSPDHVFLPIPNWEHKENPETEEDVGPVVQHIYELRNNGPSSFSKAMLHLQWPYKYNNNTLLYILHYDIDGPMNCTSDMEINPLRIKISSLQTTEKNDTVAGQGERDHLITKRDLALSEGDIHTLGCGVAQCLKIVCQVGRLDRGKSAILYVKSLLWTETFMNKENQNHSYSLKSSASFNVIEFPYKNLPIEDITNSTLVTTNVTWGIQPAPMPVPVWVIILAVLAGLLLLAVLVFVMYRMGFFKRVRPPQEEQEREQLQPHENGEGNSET

Q: With EPRGDLRTLAAREKRNFNETLARLQEKGI (biotin (biotinylated-D25p; position not stated)) [D25p, VH-CDR3 derived peptide of D25scFv] as the binder, how does the binding [1] read?
A: no binding (tested: 1 uM)

Q: What about the binding [2] of the same binder?
A: no binding (tested: 1 uM)

Q: And the binding [3]?
A: no binding (tested: 1 uM)

Q: And the binding [4]?
A: binds

Q: What about the binding [5] of the same binder?
A: no binding (tested: 1 uM)
